Measurements as given in PubChem BioAssay (Tox21).
Several values for one entry are separate records, joined by “and”; a condition that tells them apart may be missing. Identical values can stand only once. Inconclusive results, whose numbers are uncertain, are shown with a selection of clear calls. Where the call is inconclusive, the potency comes from a doubtful curve fit. More than one record can exist for a structure, and the calls need not agree. Activity calls are given as the source filed them. Calls follow the shape of the dose curve; as a rule, active = well fitted cell-killing curve with a large enough effect in the repeat runs; inconclusive = weak or mixed curves, or effect the other way; inactive = flat fitted curve, though single readings scatter.

Assay: cAMP Responsive Elements (CRE) small molecule agonists, cell-based qHTS assay: qHTS cell viability counter screen (AID 2060914); also: nearly all actives have a fitted effect of over 50% in size
Conditions: CRE-bla HEK293T viability, CellTiter-Glo luminescence, 5 h; series mostly up to 92.4 µM
Method in brief: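 Cytotoxicity counter screen multiplexed with the CRE-bla reporter assay in HEK 293T cells: 3 h compound exposure at 37 °C, followed by CellTiter-Glo luminescence measured in the same wells.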
Potency is read from the fitted curve at half-maximal effect.

Row | SMILES | Potency
1 | Clc1ccc(C(c2ccc(Cl)cc2)C(Cl)Cl)cc1 | active: 62.1 µM and inconclusive: 8.63 µM [cytotoxic, full curve]
2 | CC(C)C#N | inactive
3 | CSC1=N[C@@](C)(c2ccccc2)C(=O)N1Nc1ccccc1 | inactive
4 | C=CCN1C[C@H](C)N([C@H](c2ccc(C(=O)N(CC)CC)cc2)c2cccc(OC)c2)C[C@H]1C | inconclusive: 0.266 µM [cytotoxic, single point]
5 | Cc1ccccc1N | inconclusive: 1.09 µM [cytotoxic, full curve, poor fit]
6 | CC(C)(C)OOC(C)(C)CCC(C)(C)OOC(C)(C)C | inconclusive: 2.17 µM [cytotoxic, partial curve, poor fit]
7 | OC(c1ccc(F)cc1)(c1cncnc1)c1ccccc1Cl (stereo not drawn) | inconclusive: 2.43 µM [cytotoxic, single point]
8 | CCOC(=O)N(C)N=O | inactive
9 | CCC(CC)(CNC(=O)CCCO)c1cccc(OC)c1 | inactive
10 | COc1ccc(N)cc1 | inconclusive: 0.0015 µM [cytotoxic, full curve, poor fit]
11 | CSc1nnc(C(C)(C)C)c(=O)n1N | inactive
12 | CNC(=O)Oc1cccc2ccccc12 | inconclusive: 0.596 µM [cytotoxic, single point]
13 | CCOP(=O)(OCC)SCCSCC | inactive
14 | C[C@]12CCC(=O)C[C@@H]1CC[C@@H]1[C@@H]2CC[C@]2(C)[C@@H](O)CC[C@@H]12 | inconclusive: 60.4 µM [cytotoxic, single point]
15 | Cc1cc(C)cc(OP(=O)(Oc2cc(C)cc(C)c2)Oc2cc(C)cc(C)c2)c1 | inconclusive: 55.3 µM [cytotoxic, partial curve, poor fit]
16 | CC(C)[N+](C)(CCC(C(N)=O)(c1ccccc1)c1ccccc1)C(C)C | inconclusive: 11.9 µM [rising, single point]
17 | COC(=O)/C=C(\C)OP(=O)(OC)OC | inactive
18 | CC(C)C(=O)OCC(C)(C)C(OC(=O)C(C)C)C(C)C (stereo not drawn) | inactive
19 | CCCCCCCCCCCCCCCCn1cc[n+](C)c1 | inconclusive: 35.1 µM [cytotoxic]

Row | SMILES | Potency
20 | Cl[C@H]1OCCO[C@@H]1Cl | inconclusive: 67.1 µM [cytotoxic, single point]
21 | O=C1c2ccccc2C(=O)C1C(=O)C(c1ccccc1)c1ccccc1 | inconclusive: 33.5 µM [cytotoxic, single point]
22 | O=C(Nc1ccc(Br)cc1)c1cc(Br)cc(Br)c1O | inconclusive: 19.3 µM [cytotoxic]
23 | COP(=S)(OC)Oc1nc(Cl)c(Cl)cc1Cl | inactive
24 | CCN(CC)C(=O)Cl | inactive
25 | Oc1c(Br)cc(Br)cc1Br | inactive
26 | CCC(C)Br (stereo not drawn) | inactive
27 | C=C(C)C(=O)OCC(CC)CCCC (stereo not drawn) | inactive
28 | O=S(=O)(c1ccccc1)c1ccccc1 | inactive
29 | CCN(CC)N=O | inconclusive: 2.43 µM [cytotoxic, single point]
30 | O=[N+]([O-])O | inconclusive: 6.86 µM [cytotoxic, single point]
31 | Cc1cccc(C)c1NC1=NCCCS1 | inconclusive: 7.5 µM [cytotoxic, single point]
32 | O=[N+]([O-])c1ccc([As](=O)(O)O)cc1 | inconclusive: 2.43 µM [cytotoxic, single point]
33 | O=C(Nc1ccc(F)cc1F)c1cccnc1Oc1cccc(C(F)(F)F)c1 | inconclusive: 3.37 µM [cytotoxic, single point]
34 | COS(=O)(=O)OC | inconclusive: 0.433 µM [cytotoxic, single point]
35 | O=[N+]([O-])c1cc(C(F)(F)F)cc([N+](=O)[O-])c1Cl | inconclusive: 0.614 µM [cytotoxic, single point]
36 | O=C(O)c1cc(I)cc(I)c1I | inactive
37 | NC(=S)Nc1ccccc1 | inconclusive: 24.7 µM [cytotoxic, full curve, poor fit]
38 | O=[N+]([O-])/N=C1\NCCN1Cc1ccc(Cl)nc1 | inconclusive: 1.19 µM [cytotoxic, single point]
